# Laboratory results reported in the supplement of paper PMC9135407.
# Where “and” joins values, the source holds several entries; their conditions need not be identical. Identical values can stand only once. Counter-ions that a name gives are not always drawn. ± gives the standard deviation of the averaged measurements. The list shows a part of the results. Plates or batches differ in their baseline, so values are only roughly comparable.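 Primary human stellate myofibroblasts activated in culture; inactivation shown by regained lipid droplets. Readout: fraction of Hoechst-counted cells exceeding a per-plate Bodipy threshold, duplicate wells, each plate with DMSO negative and nortriptyline positive controls. Hits: control-normalized score beyond the plate's top-tenth-percentile nortriptyline wells, or among its three best wells. Final well concentrations unstated.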
# System: primary human hepatic stellate cells (donor 1)
# Assay: percent Bodipy-positive cells; higher = more lipid droplet accumulation
# Settings: 48 h
# [1] = library stock concentration: 3.33 mM
# [2] = library stock concentration: 10 mM
# [3] = library stock concentration: 5.7 mM
# [4] = library stock concentration: 2 mM
# [5] = library stock concentration: 80 uM
# [6] = library stock concentration: 400 uM
smiles,measurement,setting,value
CC(C)(C)c1cc(C(C)(C)C)c(NC(=O)c2c[nH]c3ccccc3c2=O)cc1O [Ivacaftor (VX-770)],percent Bodipy-positive cells,[1],27.7 ± 4.9%
same,percent Bodipy-positive cells,[2],81.8 ± 12%
CC(=O)N(CC(O)CO)c1c(I)c(C(=O)NCCO)c(I)c(C(=O)NCC(O)CO)c1I (stereo not given),percent Bodipy-positive cells,[2],39.3 ± 12%
CN1CCN(CC(=O)N2c3ccccc3C(=O)Nc3cccnc32)CC1 [Pirenzepine hydrochloride],percent Bodipy-positive cells,library stock concentration: 4.7 mM,18.1 ± 4%
same,percent Bodipy-positive cells,[2],20.9 ± 0.4%
CN1CCN(CC(=O)N2c3ccccc3C(=O)Nc3cccnc32)CC1 [Pirenzepine 2HCl],percent Bodipy-positive cells,[3],8.84 ± 2.9%
CN1CCN(CC(=O)N2c3ccccc3C(=O)Nc3cccnc32)CC1 [Pirenzepine dihydrochloride],percent Bodipy-positive cells,,24 ± 9.3%
same,percent Bodipy-positive cells,[2],11.5 ± 0.91%
CO[C@H]1/C=C/O[C@@]2(C)Oc3c(C)c(O)c4c(O)c(c5c(nc6cc(C)ccn65)c4c3C2=O)NC(=O)/C(C)=C\C=C\[C@H](C)[C@H](O)[C@@H](C)[C@@H](O)[C@@H](C)[C@H](OC(C)=O)[C@@H]1C,percent Bodipy-positive cells,[2],13.3 ± 9.6%
CO[C@H]1/C=C/O[C@@]2(C)Oc3c(C)c(O)c4c(O)c(c5c(nc6cc(C)ccn65)c4c3C2=O)NC(=O)/C(C)=C\C=C\[C@H](C)[C@H](O)[C@@H](C)[C@@H](O)[C@@H](C)[C@H](OC(C)=O)[C@@H]1C [Rifaximin],percent Bodipy-positive cells,[1],10.5 ± 1.7%
same,percent Bodipy-positive cells,[2],11.2 ± 0.84%
Clc1cccc(Cl)c1NC1=NCCN1,percent Bodipy-positive cells,[2],13.48 ± 0.014%
Clc1cccc(Cl)c1NC1=NCCN1 [Clonidine HCl],percent Bodipy-positive cells,[1],7.8 ± 6.3%
same,percent Bodipy-positive cells,library stock concentration: 8.7 mM,10.9 ± 0.053%
same,percent Bodipy-positive cells,[2],11.1 ± 1.9%
Clc1cccc(Cl)c1NC1=NCCN1 [Clonidine],percent Bodipy-positive cells,library stock concentration: 21.7 mM,32.7 ± 1.8%
Clc1cccc(Cl)c1NC1=NCCN1 [Clonidine hydrochloride],percent Bodipy-positive cells,,29.5 ± 9.1%
same,percent Bodipy-positive cells,library stock concentration: 7.5 mM,1.93 ± 1%
CN(C)S(=O)(=O)c1ccc2c(c1)/C(=C/c1cc3c([nH]1)CCCC3)C(=O)N2,percent Bodipy-positive cells,[1],69.5 ± 6.8%
O=C1[C@H]2CCCC[C@H]2C(=O)N1CCCCN1CCN(c2nsc3ccccc23)CC1,percent Bodipy-positive cells,[2],35.8 ± 3%
C[C@]12C=CC(=O)N[C@@H]1CC[C@@H]1[C@@H]2CC[C@]2(C)[C@@H](C(=O)Nc3cc(C(F)(F)F)ccc3C(F)(F)F)CC[C@@H]12 [Dutasteride],percent Bodipy-positive cells,[1],14.5 ± 2.5%
same,percent Bodipy-positive cells,[2],72.2 ± 13%
N=C(N)NCCCCNC(=N)N [Arcaine sulfate],percent Bodipy-positive cells,,8.36 ± 0.86%
same,percent Bodipy-positive cells,[2],45.9 ± 8%
CCN(CC)c1ccc(/C=N/NC(=O)c2ccc(O)cc2)cc1,percent Bodipy-positive cells,[2],6.09 ± 0.45%
Cl.Nc1ccc(C(=O)Nc2cccc(-c3nc(N4CCOCC4)c4oc5ncccc5c4n3)c2)cn1,percent Bodipy-positive cells,[4],98.25 ± 0.85%
same,percent Bodipy-positive cells,[2],81.6 ± 1.8%
CCCNC(=O)NS(=O)(=O)c1ccc(Cl)cc1,percent Bodipy-positive cells,[2],24.5 ± 5.5%
CCCNC(=O)NS(=O)(=O)c1ccc(Cl)cc1 [Chlorpropamide],percent Bodipy-positive cells,,23.4 ± 16%
same,percent Bodipy-positive cells,[1],15.2 ± 11%
same,percent Bodipy-positive cells,library stock concentration: 7.2 mM,2.15 ± 0.63%
CCN(CC)C(C)CN1c2ccccc2Sc2ccccc21 (stereo not given) [Ethopropazine hydrochloride],percent Bodipy-positive cells,,47.2 ± 2.3%
same,percent Bodipy-positive cells,[3],45.6 ± 8.8%
CC(=O)O[C@]1(C(C)=O)CC[C@H]2[C@@H]3C=C(Cl)C4=CC(=O)CC[C@]4(C)[C@H]3CC[C@@]21C [Chlormadinone acetate],percent Bodipy-positive cells,library stock concentration: 4.5 mM,11.9 ± 1.1%
same,percent Bodipy-positive cells,library stock concentration: 4.9 mM,17.5 ± 1.4%
CN1CCN(CCc2ccc(Cl)c(Cl)c2)CC1 [BD 1063 dihydrochloride],percent Bodipy-positive cells,[2],46.2 ± 3.4%
Cc1cc(O)c(C(=O)N[C@@H](C(=O)N[C@@H]2C(=O)N3C(C(=O)O)=C(CSc4nnnn4C)CS[C@H]23)c2ccc(O)cc2)cn1,percent Bodipy-positive cells,[2],36.8 ± 8.4%
COc1ccc(-c2nc(N3CCOCC3)c3sc(CN(C)c4ncc(C(=O)NO)cn4)cc3n2)cn1,percent Bodipy-positive cells,[5],58.2 ± 2.2%
same,percent Bodipy-positive cells,[6],56.08 ± 0.5%
same,percent Bodipy-positive cells,[4],53.5 ± 3.4%
same,percent Bodipy-positive cells,[1],45.1 ± 3.1%
same,percent Bodipy-positive cells,[2],60.8% and 49.5%
COc1cc(-c2ncn(/C=C\C(=O)OC(C)C)n2)cc(C(F)(F)F)c1,percent Bodipy-positive cells,[1],40 ± 9.1%
same,percent Bodipy-positive cells,[2],64.6 ± 23%
Cc1cnc(Nc2ccc(OCCN3CCCC3)cc2)nc1Nc1cccc(S(=O)(=O)NC(C)(C)C)c1,percent Bodipy-positive cells,[5],24 ± 5.3%
same,percent Bodipy-positive cells,[6],37.2 ± 7.3%
same,percent Bodipy-positive cells,[4],71.8 ± 3.7%
same,percent Bodipy-positive cells,[1],90 ± 2.9%
same,percent Bodipy-positive cells,[2],98.8% and 100%
CNCCCN1c2ccccc2CCc2ccccc21.Cl [Desipramine hydrochloride],percent Bodipy-positive cells,,85.3 ± 3.5%
Cn1ncnc1[C@H]1c2n[nH]c(=O)c3cc(F)cc(c23)N[C@@H]1c1ccc(F)cc1,percent Bodipy-positive cells,[1],12.3 ± 2.7%
same,percent Bodipy-positive cells,[2],21.3 ± 9.5%
C=CCN(C)CCCCCCOc1ccc(C(=O)c2ccc(Br)cc2)c(F)c1,percent Bodipy-positive cells,library stock concentration: 1 mM,28.4 ± 12%
CC=CC(=O)N(CC)c1ccccc1C [Crotamiton],percent Bodipy-positive cells,,11.4 ± 6.1%
same,percent Bodipy-positive cells,[2],32.4 ± 5.6%
CC1CC2C3CCC4=CC(=O)C=CC4(C)C3(F)C(O)CC2(C)C1C(=O)CO (stereo not given),percent Bodipy-positive cells,[2],27.7 ± 6.4%
CNCCc1ccccn1 [Betahistine mesylate],percent Bodipy-positive cells,,39.1 ± 2.3%
CNCCc1ccccn1 [Betahistine hydrochloride],percent Bodipy-positive cells,library stock concentration: 9.6 mM,20.2 ± 2.8%
CNCCc1ccccn1 [Betahistine 2HCl],percent Bodipy-positive cells,[1],13.2 ± 2.1%
same,percent Bodipy-positive cells,[2],26.3 ± 4.4%
CC(C)Oc1ccc(-c2cnc3c(-c4ccnc5ccccc45)cnn3c2)cc1,percent Bodipy-positive cells,[1],47.4 ± 11%
same,percent Bodipy-positive cells,[2],33 ± 18%
c1cn2cc(-c3ccc4cn[nH]c4c3)nc(Nc3ccc(N4CCOCC4)cc3)c2n1,percent Bodipy-positive cells,[1],97.8 ± 1.8%
same,percent Bodipy-positive cells,[2],99.06 ± 0.27%
CC1=C(C)C(=O)C(C(CCCCCC(=O)O)c2ccccc2)=C(C)C1=O (stereo not given),percent Bodipy-positive cells,[2],38.4 ± 11%
